# Data published in article PMC10905933.
# Amino acid sequences for entries named in this document (tags omitted).
# UniProt Q92793: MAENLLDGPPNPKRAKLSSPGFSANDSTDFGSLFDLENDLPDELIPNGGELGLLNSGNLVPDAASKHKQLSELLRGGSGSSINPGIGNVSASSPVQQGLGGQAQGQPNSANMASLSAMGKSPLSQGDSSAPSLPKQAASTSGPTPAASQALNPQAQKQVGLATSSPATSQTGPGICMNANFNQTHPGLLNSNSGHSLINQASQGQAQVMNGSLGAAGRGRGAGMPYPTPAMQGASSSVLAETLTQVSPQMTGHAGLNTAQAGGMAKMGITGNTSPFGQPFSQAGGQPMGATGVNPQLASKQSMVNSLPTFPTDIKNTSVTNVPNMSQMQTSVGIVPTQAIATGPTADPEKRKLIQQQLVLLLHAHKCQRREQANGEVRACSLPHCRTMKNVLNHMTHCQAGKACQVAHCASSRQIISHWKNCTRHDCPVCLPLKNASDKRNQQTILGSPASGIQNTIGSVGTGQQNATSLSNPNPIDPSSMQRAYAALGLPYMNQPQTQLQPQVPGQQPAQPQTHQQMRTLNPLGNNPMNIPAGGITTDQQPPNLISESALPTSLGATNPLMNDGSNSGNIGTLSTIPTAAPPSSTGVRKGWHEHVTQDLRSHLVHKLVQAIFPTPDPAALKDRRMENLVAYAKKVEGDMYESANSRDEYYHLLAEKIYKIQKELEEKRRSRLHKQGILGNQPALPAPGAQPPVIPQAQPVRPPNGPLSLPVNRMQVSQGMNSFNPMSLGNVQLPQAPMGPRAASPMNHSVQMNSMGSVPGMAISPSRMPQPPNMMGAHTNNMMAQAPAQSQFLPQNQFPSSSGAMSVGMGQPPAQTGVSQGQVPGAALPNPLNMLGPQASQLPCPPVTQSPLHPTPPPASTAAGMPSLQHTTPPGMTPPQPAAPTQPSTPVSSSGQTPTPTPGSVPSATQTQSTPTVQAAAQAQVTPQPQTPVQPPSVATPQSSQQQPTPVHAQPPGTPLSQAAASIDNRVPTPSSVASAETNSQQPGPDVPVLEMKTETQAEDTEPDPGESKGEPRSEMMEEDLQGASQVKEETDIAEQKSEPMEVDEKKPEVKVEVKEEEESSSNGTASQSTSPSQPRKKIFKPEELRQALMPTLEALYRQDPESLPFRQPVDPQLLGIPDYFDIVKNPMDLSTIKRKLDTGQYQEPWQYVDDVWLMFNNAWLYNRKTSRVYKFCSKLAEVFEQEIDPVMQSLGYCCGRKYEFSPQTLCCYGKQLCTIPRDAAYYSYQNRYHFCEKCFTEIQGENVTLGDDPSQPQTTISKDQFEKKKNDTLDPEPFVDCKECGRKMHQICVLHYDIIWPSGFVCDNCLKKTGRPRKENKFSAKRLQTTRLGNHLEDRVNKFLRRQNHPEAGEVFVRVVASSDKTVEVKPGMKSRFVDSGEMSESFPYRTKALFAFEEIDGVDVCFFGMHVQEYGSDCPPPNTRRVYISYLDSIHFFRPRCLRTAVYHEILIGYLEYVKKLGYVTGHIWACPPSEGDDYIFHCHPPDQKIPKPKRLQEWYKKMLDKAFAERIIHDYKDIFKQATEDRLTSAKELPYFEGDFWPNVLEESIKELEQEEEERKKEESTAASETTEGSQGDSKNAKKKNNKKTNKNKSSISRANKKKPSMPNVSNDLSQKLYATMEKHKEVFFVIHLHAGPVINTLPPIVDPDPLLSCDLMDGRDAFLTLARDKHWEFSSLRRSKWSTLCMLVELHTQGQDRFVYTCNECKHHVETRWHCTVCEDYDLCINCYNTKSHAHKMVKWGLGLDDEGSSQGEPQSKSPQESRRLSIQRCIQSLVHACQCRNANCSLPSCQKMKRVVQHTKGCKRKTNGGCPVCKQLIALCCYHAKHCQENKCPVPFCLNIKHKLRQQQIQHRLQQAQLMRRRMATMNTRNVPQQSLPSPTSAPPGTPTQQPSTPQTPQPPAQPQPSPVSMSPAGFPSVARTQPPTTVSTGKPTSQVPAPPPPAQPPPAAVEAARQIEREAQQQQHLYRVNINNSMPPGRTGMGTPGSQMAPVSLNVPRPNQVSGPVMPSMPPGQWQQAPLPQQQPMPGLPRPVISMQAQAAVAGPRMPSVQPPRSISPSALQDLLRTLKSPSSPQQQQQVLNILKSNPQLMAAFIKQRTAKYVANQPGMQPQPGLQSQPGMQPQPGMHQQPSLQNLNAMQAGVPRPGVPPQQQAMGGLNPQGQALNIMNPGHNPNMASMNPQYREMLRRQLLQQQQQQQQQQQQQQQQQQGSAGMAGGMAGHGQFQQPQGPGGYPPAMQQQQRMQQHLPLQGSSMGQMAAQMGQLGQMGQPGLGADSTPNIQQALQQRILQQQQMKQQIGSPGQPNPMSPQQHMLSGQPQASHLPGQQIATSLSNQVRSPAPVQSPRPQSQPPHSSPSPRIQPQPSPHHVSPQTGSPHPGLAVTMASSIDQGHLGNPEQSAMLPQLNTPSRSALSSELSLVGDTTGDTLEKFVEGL
# Results are given in words; binding and its absence hold for the method and conditions named. Binding seen in cells or lysates may run through a third protein. Some results given as binding are weak or reduced against the parent protein; the word gives no strength.
# Target: T1, phosphorylated STAT4 (pSTAT4) (human (endogenous in PC3 and DU145)) (UniProt Q14765)
# T1 sequence (chain, phosphorylated (site not printed)): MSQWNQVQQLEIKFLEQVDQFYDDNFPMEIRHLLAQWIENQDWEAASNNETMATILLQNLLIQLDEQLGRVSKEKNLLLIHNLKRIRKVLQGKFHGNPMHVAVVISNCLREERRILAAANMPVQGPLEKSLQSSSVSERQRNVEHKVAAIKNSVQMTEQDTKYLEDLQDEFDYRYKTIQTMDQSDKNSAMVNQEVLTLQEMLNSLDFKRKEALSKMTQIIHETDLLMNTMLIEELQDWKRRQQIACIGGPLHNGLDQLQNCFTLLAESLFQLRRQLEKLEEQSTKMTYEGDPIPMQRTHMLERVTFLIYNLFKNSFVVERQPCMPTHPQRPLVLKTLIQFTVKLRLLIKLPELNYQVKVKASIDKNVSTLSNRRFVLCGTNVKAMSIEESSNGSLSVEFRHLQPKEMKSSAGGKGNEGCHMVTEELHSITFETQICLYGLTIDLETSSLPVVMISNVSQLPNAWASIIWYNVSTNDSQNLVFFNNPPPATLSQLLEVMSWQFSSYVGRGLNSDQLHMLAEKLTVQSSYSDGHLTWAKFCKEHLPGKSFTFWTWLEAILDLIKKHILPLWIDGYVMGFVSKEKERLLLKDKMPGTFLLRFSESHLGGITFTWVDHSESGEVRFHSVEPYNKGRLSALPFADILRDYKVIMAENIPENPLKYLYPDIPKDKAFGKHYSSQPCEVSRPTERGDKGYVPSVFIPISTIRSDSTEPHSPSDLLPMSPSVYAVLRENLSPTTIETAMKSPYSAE
# Assay: co-IP; coimmunoprecipitation in PC3 and DU145 cells, Western blot, IgG as a control; which protein was precipitated is not told
substance,measurement,value
CREB-binding protein (CBP) (from UniProt Q92793 1-2442),binding,binds
